# Data from PubChem BioAssay AID226 (DTP/NCI, 2004).
# The list does not hold the whole screen: it gathers tests that were run many times, whatever their T/C, doses with no T/C, and many T/C values between a quarter and a half above the control. Other doses and runs of a compound stand elsewhere. T/C gives the treated animals as a percentage of the vehicle group. Some doses have a count of surviving animals in place of a T/C: the source files T/C as zero there, which appears to mark a toxic dose or a test without result, not a measured value. Some survivor counts are full or nearly so, which does not show that the dose was tolerated: survival well below the control is almost never listed, so the zero probably covers shortened survival too. Counts of survivors are from the toxicity check (mostly the fifth day) where no day follows; animals may have died later. Schedule codes are those of the source, read here as Q, the interval in days (D) or hours (H), X, the number of doses. For survival time, this PubChem deposit counts one and a half times the control or more as active, and values a quarter to a half above the control carry no call in these data; other NCI protocols may use other cut-offs. Some T/C values are followed by the survivors on the day toxicity was checked, most often the fifth; without a count, all were alive then. Some entries were tested several times; the results are listed from low to high. Signs of the kind (2×) give the number of equal values in this list.
# System: B6C3F1 mice, intracerebral ependymoblastoma, median survival T/C
# Test: NCI In Vivo Anticancer Drug Screen. Data for tumor model Ependymoblastoma (intracerebral) in B6C3F1 mice
# Conditions: T/C endpoint: median survival time, higher T/C = longer survival
# Experimental: The antitumor activity of compounds was measured in mice bearing transplantable tumors. Survival or tumor size were measured and the results are expressed as the measurement made in the treated group (T) divided by the measurement made in the vehicle treated control group (C). The tumor model used in this assay is Ependymoblastoma (intracerebral) in B6C3F1 mice
# [1] = dose: 128.0 mg/kg/injection, schedule: Q01DX001 (ip), vehicle: Klucel (hydroxypropylcellulose) (HPC)
# [2] = dose: 256.0 mg/kg/injection, schedule: Q01DX001 (ip), vehicle: Klucel (hydroxypropylcellulose) (HPC)
# [3] = dose: 512.0 mg/kg/injection, schedule: Q01DX001 (ip), vehicle: Klucel (hydroxypropylcellulose) (HPC)
# [4] = dose: 1024.0 mg/kg/injection, schedule: Q01DX001 (ip), vehicle: Klucel (hydroxypropylcellulose) (HPC)
Structure (SMILES),"survivor count (dose: 25.0 mg/kg/injection, schedule: Q01DX005 (ip), vehicle: saline with Tween-80)","survivor count (dose: 50.0 mg/kg/injection, schedule: Q01DX005 (ip), vehicle: saline with Tween-80)",T/C [1],survivor count [1],"T/C (dose: 128.0 mg/kg/injection, schedule: Q01DX005 (ip), vehicle: Klucel (hydroxypropylcellulose) (HPC))",T/C [2],survivor count [2],"survivor count (dose: 256.0 mg/kg/injection, schedule: Q01DX005 (ip), vehicle: Klucel (hydroxypropylcellulose) (HPC))",T/C [3],survivor count [3],"survivor count (dose: 512.0 mg/kg/injection, schedule: Q01DX005 (ip), vehicle: Klucel (hydroxypropylcellulose) (HPC))","T/C (dose: 512.0 mg/kg/injection, schedule: Q01DX005 (ip), vehicle: suspension in saline)",T/C [4],survivor count [4],"survivor count (dose: 1024.0 mg/kg/injection, schedule: Q01DX005 (ip), vehicle: suspension in saline)"
COc1ccc2c(c1OC(C)=O)-c1cc(O)cc3c1C(C2)N(C(=O)CN(CCCl)CCCl)CC3 (stereo not given),8 of 10,2 of 10,,,,,,,,,,,,,
COc1cc2c(c3c1c(=O)c1ccccc1n3C)C=CC(C)(C)O2,,,"103 [survivors not given], 105 [survivors not given], 106 % of control [survivors not given]",0 of 10,127 % of control,"94 [survivors not given], 101 [survivors not given], 106 % of control [survivors not given]",0 of 10,6 of 10,92 [survivors not given] and 105 % of control [survivors not given] (2×),1 of 10,0 of 10,126 % of control,100 [survivors not given] and 115 % of control [survivors not given],0 of 10,2 of 10
